In PubChem BioAssay AID1508600 (Functional Genomics Laboratory (NCATS/FGL), 2020):
Screen size: about 53,000 sequences; about 3,700 (7%) were called active.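 The calls were made as follows: active = gene knockdowns whose robust z-score for IL-1 alpha signal is at least 2 or at most -2, so actives lie on both sides; inactive = the rest.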 Some of the results follow.

Experiment: Components of the Cytosolic LPS Sensing Pathway: Gene Identification via Genome-wide siRNA Screen;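 also: robust z of the log signal after scaling to non-targeting control siRNA wells of the plate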
Conditions: RAW264.7 macrophages, IL-1a HTRF, actives lie on both sides, screened at 100 nM (by protocol), cells primed 5 h with Pam3CSK4 first
Outline: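 RAW264.7; siRNA 100 nM final, RNAiMAX, 48h 37 degrees C; Pam3CSK4 5 h; LipidA + TransIT-TKO 24 h; IL-1a HTRF; CellTiter-Glo viability; robust z vs negative-control median.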

Row | Sequence | z-score
1 | GGCGAGAAGAGGUGAAUCATT against Nrbp1 | inactive: 1.92
2 | GGUGUUCCAGUUACCUGAGTT against Klhl26 | inactive: -0.0813
3 | CGAUGCUGACUGAGAUCAUTT against Rad23a | inactive: 1.39
4 | GCACUAAUACUAACCAUGGTT against Rhox12 | inactive: 0.788
5 | CCACUCAAGACCAAAUGGATT against Arx | inactive: -0.147
6 | GGAAAGUAUGGUGGCUUCGTT against Olfr859 | inactive: 0.159
7 | GGCUCAUUUAAAACAAGCATT against Cdh11 | inactive: -0.259
8 | GGGUACACAACUACCCAAGTT against Sox15 | inactive: -0.806
9 | GGAUCGUUUAUGAAUCUGATT against Slitrk6 | inactive: -0.891
10 | CCUAGAGUGAGAUAGCCCUTT against Igfbpl1 | inactive: 0.185
11 | CGAAAGCUAAACUAAAAGATT against Stimate | inactive: 0.539
12 | GGAAGUGUAUGUUAUUUCATT against B230325K18Rik | inactive: 0.173
13 | GGUUCUACCUUUCAUGAGUTT against Gm11733 | inactive: 0.803
14 | GCAACCCAUAGUCUACCCUTT against Hoxc4 | inactive: 0.233
15 | GGAGCGUAGAUAACUUAUCTT against Itprid2 | inactive: -0.0474
16 | GGAAGAGCCAGUGGUAUAATT against Ccdc171 | inactive: 0.164
17 | GGGAGAACCAGCACAACAUTT against Cavin2 | inactive: -1.8
18 | GGAGAAAAUUGAAGAGUAUTT against Gtf2e2 | inactive: -1.56
19 | GGACUAUUCAAACCUAUAUTT against Hsf3 | inactive: 0.155
20 | GGUAAACCUGCCAAUUUUGTT against Ovch2 | inactive: 1.54
21 | CCCUGUGCGAGAAUAGCAUTT against Pigh | inactive: -1.31
22 | CCAGCAAGUAAAACAAGCUTT against Olfr803 | inactive: 0.998

Row | Sequence | z-score
23 | GGGACUCGUGCAACAUUAUTT against Tmigd3 | inactive: -1.21
24 | CCUUCAAGAUAAAUUGACATT against Tango6 | inactive: 0.755
25 | GGAAGAUCACAGAAUUCUCTT against Aoc1 | inactive: 0.592
26 | GGGCAAAAACAAGCAAAAATT against Lima1 | inactive: -0.849
27 | GGAAAUUGAACAGCGAUUATT against Gatad2b | inactive: 0.871
28 | GGCAAAGUUAUCAAGGAGATT against Slc17a6 | inactive: -0.00335
29 | GGGCAAAGUGAUUGGCAUATT against Aifm2 | inactive: 0.481
30 | GCCACUCUAGCUCGUAUUGTT against Des | inactive: 0.896
31 | GGCUAAAAUAAAGAAGAAGTT against Cfap100 | inactive: 0.00546
32 | CGAGCUUGUUUUUGGAAGUTT against Uts2b | inactive: 1.23
33 | CCACACUUAGUCAUUUUCUTT against Paral1 | active: -2.06
34 | GGACAUACCCUUAACCAAATT against Plekhb1 | inactive: -1.21
35 | GCAAAUCCGAAUGAACCUUTT against Cabp5 | inactive: -0.159
36 | GGCAGAACGGAAUAAAAUGTT against Stag2 | active: -3.03
37 | GGCAGAAUGAUGAACUGUUTT against A830073O21Rik | inactive: -1.82
38 | GGUUGCUCUUCUUAAGGAGTT against Aimp1 | inactive: 0.415
39 | GGAGGCAGAGCUGUCCAAATT against Timm10 | inactive: -1.35
40 | GGACGCACACGUACAUCGUTT against Mex3d | inactive: 0.65
41 | AAUGCAGGUUAUUGUGGGATT against Gm5334 | inactive: -0.288
42 | GGGAGACCUUACUUUUUAATT against Foxr2 | inactive: 1.04
43 | GCUGCAUCUAAAGCCUUAATT against Olfr661 | inactive: 1.41
44 | GGAAGAAAAAGAAAAGAGUTT against Dek | inactive: -0.634

Row | Sequence | z-score
45 | GGACAUCCAUUCAUGCUUUTT against Serpinb1b | inactive: -0.529
46 | GGAGAAAAUCAAAGAAGCUTT against Gnpda2 | inactive: -1.44
47 | GGCCUAAACCCUUUCAUCUTT against V1rb6 | inactive: -0.0202
48 | GCAGUGCGAUUGCUUACAGTT against Tube1 | inactive: 1.07
49 | GCUGAGUCAAAAUGUAAAGTT against Cdc25c | inactive: 0.354
50 | GGCACUGUAGACAAACUCUTT against Stxbp1 | inactive: -0.468
51 | GGAGUUGAAUGGCUCUGGATT against Usp26 | active: -2.11
52 | GCUGAAUCUGUUGUCCGUGTT against Mpo | inactive: 1.1
53 | GGUCGUUGUGUCUGAAUACTT against Triml1 | inactive: 0.729
54 | GGAAGCAAAAUAAAGAAACTT against Myo1e | inactive: 0.109
55 | GCCGACAUAGCAUUAUUAATT against Spry2 | inactive: -0.194
56 | CCAAUGUUGGAAAGCCUUUTT against Zfp97 | inactive: 0.236
57 | CGACUUGCAUCAGUGGAUCTT against Cpxm2 | inactive: 1.97
58 | GGCAGUAUCCUUAUGCAUGTT against Ptges3 | inactive: 1.53
59 | GGGUUUCGCUAGAACCAUUTT against Plekhg5 | inactive: -0.541
60 | GGCCUUAUUGAUAAGUCUUTT against Acot3 | inactive: 0.662
61 | GGAGGAAAAGAAAGGUCCUTT against Klc3 | inactive: 0.628
62 | CCUAAUUUGAUCCUUCGAATT against Zfp672 | inactive: -0.947
63 | GCUUCACUCACAUAAUAUCTT against Mrps31 | inactive: -0.932
64 | CAUCAUUGAGAUGUCACACTT against Ypel4 | inactive: -0.879
65 | GGACUUCAUCAACAACAUCTT against Nsmce1 | inactive: 0.459
66 | GCAGUUCGUAAAAAGGAAATT against Cenpo | inactive: 0.697

Row | Sequence | z-score
67 | GGUUAAUAAUGCGACAGCATT against Rbfox1 | inactive: 0.00257
68 | GGUAAACUGACCCAAGCUGTT against Zbtb26 | inactive: -0.205
69 | GCAGCUUGAGUUCUCGAAUTT against BC049715 | inactive: 0.971
70 | GGAAUAGAGAUAUCAGUAATT against Olfr866 | inactive: 0.814
71 | GCAUUACACUUAACUGACGTT against Zfp652 | inactive: -1.28
72 | GCACCUCCAGAAUGUUUUUTT against Vmn1r16 | inactive: 1.9
73 | GGAACUUUCUAAAGUGUUUTT against Med10 | inactive: 0.627
74 | GGACAUGUUUCCUGACCUGTT against Zbtb7c | inactive: -0.289
75 | GGUUGGGAGAAGAAACUUCTT against Tbc1d19 | inactive: -0.959
76 | CGAGCAUAAAAGUUAUGUGTT against Chaf1b | inactive: 1.07
77 | GGAACAAAAACUGGUGCGCTT against Emilin2 | active: 2.07
78 | ACCUGUGAUGGUGGAGACUTT against AF067061 | inactive: 0.577
79 | GGAGAAGAAGAACUACUGCTT against Vwc2 | inactive: -0.982
80 | GGGUCAUGGACAAUAGAAATT against Olfr52 | inactive: -0.833
81 | GCAAGACGGUGAUUGUAACTT against Pck2 | inactive: -0.243
82 | GGUCCUUGAUGAGUGUAAUTT against Erp29 | inactive: 0.379
83 | GGACAAAUUCUCCUUUGACTT against Fkbp4 | inactive: -0.0663
84 | GGACCAGUUAAAGUCACCATT against Atp4b | inactive: -1.81
85 | GGCAAUGAACUGAGUUGCUTT against Ugt2a2 | inactive: -0.207
86 | GGACAUUCGGCCCUAUUGCTT against Got1 | inactive: -0.31
87 | GGUGAUCUUAGCAAUGUUUTT against Pdk2 | inactive: 0.936
88 | GGAGUAGACAGAGGAUGGCTT against Ctsll3 | inactive: -0.133

Row | Sequence | z-score
89 | GGAAGUGGUCAUAUUCACGTT against Jag2 | inactive: -0.714
90 | GGCCAUGGUUCUAUAGGACTT against Zbtb37 | inactive: 0.764
91 | GGAAAACUCAUGAUCACUUTT against Robo1 | inactive: 0.308
92 | GCCUCUGGACUACUAUAGATT against Gale | inactive: -1.01
93 | GGAGAAUCAAAGAAGAAGATT against Xpc | inactive: -0.661
94 | GGUGGGAGUCAUUUUCCGUTT against P2rx1 | inactive: -0.58
95 | GGCUUUGUAUAUCUUAUCGTT against Fryl | inactive: -0.057
96 | GGGUGAAAUUCUGUUGAAGTT against Irx3os | inactive: 0.546
97 | GCCACGAUUUGCCUUAUUUTT against Litaf | inactive: -0.426
98 | GGACAGACGAAUUGAAAACTT against Stambpl1 | inactive: -0.658
99 | GCUCUACAUGUAGACCUGCTT against Morn2 | inactive: 1.12
100 | GCCAUUCACUUAAUUCAGUTT against H2ac8 | inactive: -1.32
101 | GCUGAAAAUGACCCGGAAGTT against Cftr | inactive: 1.01
102 | CCUUAGCAAUGGGAUUGAUTT against Rasl12 | inactive: 0.448
103 | GGGAGAAUUAAACCUAAAGTT against Hus1 | inactive: 1.79
104 | GGGAAAACCGAAUAAAGAUTT against Ren2 | inactive: -1.51
105 | CGUAACUUUGUUGAACUACTT against Fbxo48 | inactive: 0.739
106 | GGGCUUUGGACAUCUCCUATT against Serpina3c | inactive: -1.98
107 | GGACUUUCGUGAGAGAUUUTT against Fpr2 | inactive: 1.16

Fetched one by one from above:
Row | Sequence | z-score
26 | GGGCAAAAACAAGCAAAAATT against Lima1 | inactive: -0.849
21 | CCCUGUGCGAGAAUAGCAUTT against Pigh | inactive: -1.31
8 | GGGUACACAACUACCCAAGTT against Sox15 | inactive: -0.806
53 | GGUCGUUGUGUCUGAAUACTT against Triml1 | inactive: 0.729

Some of the entries so far, with tabs:
Row	Sequence	z-score
61	GGAGGAAAAGAAAGGUCCUTT against Klc3	inactive: 0.628
72	GCACCUCCAGAAUGUUUUUTT against Vmn1r16	inactive: 1.9
